# Measured values taken from the supplement of paper PMC8728848.
# This is one part of the list.
# B1: LlpA1 (Pseudomonas fluorescens), Q4KHC3 (protein)
# chain: MGSSHHHHHHSSGLVPRGSHMAWIRYDFTDNGSSVLPARYYMAPNQYLQSPNKRFKLLFQADGNLALYDGAQLAWVADQNTPFTNVSKGNKKDPMMVFMNYGFVLDDPLRGRIWSTTPSDPTMGSREDASLRAFTQVQDDGNIVTVDTIPHWYAPNGRVFTPAVGAAMIIGGTTELVPGQFYSAGEHSLVFQGDGNLVVYGPNSSVIWATYTQNKGGVRCVMQEDGNLVIYAANNGVVWQSGTGGHPGATIRLQANGSFTIVTERPVWARFGYTPTIKPPRVFYPDHKWKTGSYTWNNVF
# Tests used:
# Experiment in all cases: glycan array binding signal (z-score within array); higher = stronger binding
# Conditions in all cases: glycan notation: IUPAC condensed, linker removed
# [1] = molecular target: Man(a1-2)Man(a1-3)[Man(a1-2)Man(a1-6)]Man(a1-6)[Man(a1-2)Man(a1-2)Man(a1-3)]Man
# Procedure, shortened: (§1)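 From the Consortium for Functional Glycomics database, 3228 arrays were curated, keeping only those whose protein sequence was available. Binding is given as a within-array Z-score averaged across arrays sharing a protein sequence and across linkers. Negative Z-scores can be read as non-binding.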
# [2] = molecular target: Man(a1-2)Man(a1-3)[Man(a1-2)Man(a1-6)]Man(a1-6)[Man(a1-2)Man(a1-2)Man(a1-3)]Man(b1-4)GlcNAc(b1-4)GlcNAc
# Procedure, shortened: as §1
# [3] = molecular target: Man(a1-2)Man(a1-3)[Man(a1-6)]Man(a1-6)[Man(a1-2)Man(a1-3)]Man(b1-4)GlcNAc(b1-4)GlcNAc
# Procedure, shortened: as §1
# [4] = molecular target: Man(a1-2)Man(a1-6)[Man(a1-3)]Man(a1-6)[Man(a1-2)Man(a1-2)Man(a1-3)]Man
# Procedure, shortened: as §1
# [5] = molecular target: Man(a1-2)Man(a1-6)[Man(a1-3)]Man(a1-6)[Man(a1-2)Man(a1-2)Man(a1-3)]Man(b1-4)GlcNAc(b1-4)GlcNAc
# Procedure, shortened: as §1
# Man(a1-3)[Man(a1-6)]Man = molecular target: Man(a1-3)[Man(a1-6)]Man
# Procedure, shortened: as §1
# [6] = molecular target: Man(a1-3)[Man(a1-6)]Man(a1-6)[Man(a1-2)Man(a1-3)]Man(b1-4)GlcNAc(b1-4)GlcNAc
# Procedure, shortened: as §1
# [7] = molecular target: Man(a1-3)[Man(a1-6)]Man(a1-6)[Man(a1-3)]Man
# Procedure, shortened: as §1
# [8] = molecular target: Man(a1-3)[Man(a1-6)]Man(a1-6)[Man(a1-3)]Man(b1-4)GlcNAc(b1-4)GlcNAc
# Procedure, shortened: as §1
# [9] = molecular target: Man(a1-3)[Man(a1-6)]Man(b1-4)GlcNAc(b1-4)GlcNAc
# Procedure, shortened: as §1
# [10] = molecular target: Man(a1-3)[Man(a1-6)]Man(b1-4)GlcNAc(b1-4)[Fuc(a1-6)]GlcNAc
# Procedure, shortened: as §1
# Man(a1-6)Man = molecular target: Man(a1-6)Man
# Procedure, shortened: as §1
# Man(b1-4)GlcNAc = molecular target: Man(b1-4)GlcNAc
# Procedure, shortened: as §1
# MurNAc(b1-4)GlcNAc = molecular target: MurNAc(b1-4)GlcNAc
# Procedure, shortened: as §1
# Neu5Ac(a2-3)Gal = molecular target: Neu5Ac(a2-3)Gal
# Procedure, shortened: as §1
# [11] = molecular target: Neu5Ac(a2-3)Gal(b1-3)GalNAc
# Procedure, shortened: as §1
# [12] = molecular target: Neu5Ac(a2-3)Gal(b1-3)GalNAc(b1-3)Gal(a1-4)Gal(b1-4)Glc
# Procedure, shortened: as §1
# [13] = molecular target: Neu5Ac(a2-3)Gal(b1-3)GalNAc(b1-4)[Neu5Ac(a2-3)]Gal(b1-4)Glc
# Procedure, shortened: as §1
# [14] = molecular target: Neu5Ac(a2-3)Gal(b1-3)GalNAc(b1-4)[Neu5Ac(a2-8)Neu5Ac(a2-3)]Gal(b1-4)Glc
# Procedure, shortened: as §1
# [15] = molecular target: Neu5Ac(a2-3)Gal(b1-3)GalNAc6S
# Procedure, shortened: as §1
# [16] = molecular target: Neu5Ac(a2-3)Gal(b1-3)GlcNAc
# Procedure, shortened: as §1
# [17] = molecular target: Neu5Ac(a2-3)Gal(b1-3)GlcNAc(b1-2)Man
# Procedure, shortened: as §1
# [18] = molecular target: Neu5Ac(a2-3)Gal(b1-3)GlcNAc(b1-2)Man(a1-3)[GlcNAc(b1-4)][Neu5Ac(a2-3)Gal(b1-3)GlcNAc(b1-2)Man(a1-6)]Man(b1-4)GlcNAc(b1-4)GlcNAc
# Procedure, shortened: as §1
# [19] = molecular target: Neu5Ac(a2-3)Gal(b1-3)GlcNAc(b1-2)Man(a1-3)[Neu5Ac(a2-3)Gal(b1-3)GlcNAc(b1-2)Man(a1-6)]Man(b1-4)GlcNAc(b1-4)GlcNAc
# Procedure, shortened: as §1
# [20] = molecular target: Neu5Ac(a2-3)Gal(b1-3)GlcNAc(b1-3)Gal(b1-3)GlcNAc
# Procedure, shortened: as §1
# [21] = molecular target: Neu5Ac(a2-3)Gal(b1-3)GlcNAc(b1-3)Gal(b1-4)GlcNAc
# Procedure, shortened: as §1
# [22] = molecular target: Neu5Ac(a2-3)Gal(b1-3)GlcNAc(b1-3)GalNAc
# Procedure, shortened: as §1
# [23] = molecular target: Neu5Ac(a2-3)Gal(b1-3)GlcNAc(b1-4)Gal(b1-4)Glc
# Procedure, shortened: as §1
# [24] = molecular target: Neu5Ac(a2-3)Gal(b1-3)GlcNAc(b1-6)GalNAc
# Procedure, shortened: as §1
# [25] = molecular target: Neu5Ac(a2-3)Gal(b1-3)GlcNAc6S
# Procedure, shortened: as §1
# [26] = molecular target: Neu5Ac(a2-3)Gal(b1-3)[Fuc(a1-4)]GlcNAc
# Procedure, shortened: as §1
# [27] = molecular target: Neu5Ac(a2-3)Gal(b1-3)[Fuc(a1-4)]GlcNAc(b1-3)Gal(b1-3)[Fuc(a1-4)]GlcNAc
# Procedure, shortened: as §1
# [28] = molecular target: Neu5Ac(a2-3)Gal(b1-3)[Fuc(a1-4)]GlcNAc(b1-3)Gal(b1-4)[Fuc(a1-3)]GlcNAc
# Procedure, shortened: as §1
# [29] = molecular target: Neu5Ac(a2-3)Gal(b1-3)[GlcNAc(b1-6)]GalNAc
# Procedure, shortened: as §1
# [30] = molecular target: Neu5Ac(a2-3)Gal(b1-3)[Neu5Ac(a2-3)Gal(b1-4)]GlcNAc
# Procedure, shortened: as §1
# [31] = molecular target: Neu5Ac(a2-3)Gal(b1-3)[Neu5Ac(a2-6)]GalNAc
# Procedure, shortened: as §1
# [32] = molecular target: Neu5Ac(a2-3)Gal(b1-3)[Neu5Ac(a2-6)]GlcNAc(b1-3)[Fuc(a1-3)[Gal(b1-4)]GlcNAc(b1-6)]Gal(b1-4)Glc
# Procedure, shortened: as §1
# [33] = molecular target: Neu5Ac(a2-3)Gal(b1-3)]Neu5Ac(a2-3)Gal(b1-4)]GlcNAc
# Procedure, shortened: as §1
binder,measurement,setting,value
B1,glycan array binding signal (z-score),[1],-0.481
same,glycan array binding signal (z-score),[2],0.448
same,glycan array binding signal (z-score),[3],-0.851
same,glycan array binding signal (z-score),[4],1.14
same,glycan array binding signal (z-score),[5],-0.551
same,glycan array binding signal (z-score),Man(a1-3)[Man(a1-6)]Man,0.455
same,glycan array binding signal (z-score),[6],0.633
same,glycan array binding signal (z-score),[7],0.991
same,glycan array binding signal (z-score),[8],-0.014
same,glycan array binding signal (z-score),[9],-0.597
same,glycan array binding signal (z-score),[10],-0.367
same,glycan array binding signal (z-score),Man(a1-6)Man,1.03
same,glycan array binding signal (z-score),Man(b1-4)GlcNAc,-0.216
same,glycan array binding signal (z-score),MurNAc(b1-4)GlcNAc,-0.089
same,glycan array binding signal (z-score),Neu5Ac(a2-3)Gal,0.408
same,glycan array binding signal (z-score),[11],-1
same,glycan array binding signal (z-score),[12],0.287
same,glycan array binding signal (z-score),[13],-0.289
same,glycan array binding signal (z-score),[14],-0.525
same,glycan array binding signal (z-score),[15],0.094
same,glycan array binding signal (z-score),[16],-0.178
same,glycan array binding signal (z-score),[17],0.204
same,glycan array binding signal (z-score),[18],0.275
same,glycan array binding signal (z-score),[19],-0.367
same,glycan array binding signal (z-score),[20],-0.574
same,glycan array binding signal (z-score),[21],-0.453
same,glycan array binding signal (z-score),[22],-0.275
same,glycan array binding signal (z-score),[23],-0.359
same,glycan array binding signal (z-score),[24],-0.204
same,glycan array binding signal (z-score),[25],0.123
same,glycan array binding signal (z-score),[26],0.019
same,glycan array binding signal (z-score),[27],-0.488
same,glycan array binding signal (z-score),[28],0.091
same,glycan array binding signal (z-score),[29],-0.063
same,glycan array binding signal (z-score),[30],-0.689
same,glycan array binding signal (z-score),[31],-0.135
same,glycan array binding signal (z-score),[32],-0.275
same,glycan array binding signal (z-score),[33],0.082

# Not a retest: an excerpt of the list.
binder,measurement,setting,value
B1,glycan array binding signal (z-score),[4],1.14
same,glycan array binding signal (z-score),[5],-0.551
same,glycan array binding signal (z-score),Man(a1-3)[Man(a1-6)]Man,0.455
same,glycan array binding signal (z-score),[6],0.633
same,glycan array binding signal (z-score),[7],0.991
same,glycan array binding signal (z-score),[8],-0.014
same,glycan array binding signal (z-score),[9],-0.597
same,glycan array binding signal (z-score),[10],-0.367
same,glycan array binding signal (z-score),Man(a1-6)Man,1.03
same,glycan array binding signal (z-score),Man(b1-4)GlcNAc,-0.216
